{"source": "PubChem BioAssay AID2685", "about": "(National Center for Advancing Translational Sciences (NCATS), 2010)", "note": "Among all 320,000 compounds or so, about 2,100 (0.66%) were called active. Inconclusive means that the source gave no clear call. Such entries were picked first, then a sample of the others. Calls come from the whole dose curve; as a rule, active = well fitted inhibition curve with a large enough effect in the signal ratio, with a control signal flat (not every such curve was filed as active); inconclusive = small, poorly fitted or top-dose-only effect, or effect the other way, or a change in a side signal; inactive = flat fitted curve, though single readings scatter; the % refers to the signal ratio. A potency beside an inconclusive call is a rough fit, not a confirmed value. % is set by controls: 0 for no effect and ±100 for the full control effect; potency is the fitted concentration of half-maximal effect.", "data": [{"test": "qHTS Assay for Lipid Storage Modulators in Drosophila S3 Cells", "details": "BODIPY lipid droplet fluorescence, 18-24 h, cells fed with added oleic acid; lipid storage change, negative = inhibition: at 46.1 µM (top of the series) unless noted", "method_in_brief": "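Drosophila S3 cells loaded with oleic acid (400 uM, as added) and compounds at several concentrations; lipid droplets imaged by 488-nm laser-scanning cytometry, 500–530 nm intensity and object ratio to cell channel. Percent activity normalized to 20 uM Triacsin C.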", "values": [{"smiles": "O=C(Nc1cccc(Cl)c1)OC1CCCCc2cccnc21", "note": "(stereo not given)", "lipid storage change, negative = inhibition": "inconclusive: 23.1%"}, {"smiles": "O=C(COc1ccccc1)Nc1ccc(S(=O)(=O)Nc2ccccn2)cc1", "Potency": "inconclusive: 6.51 µM [activator, single point]"}, {"smiles": "O=C(c1cc([N+](=O)[O-])ccc1Cl)N1CCN(Cc2ccccc2)CC1", "Potency": "inconclusive: 29.1 µM [rising, single point]"}, {"smiles": "CCCC(=O)OCCNc1cc(SCc2ccco2)c2nonc2c1[N+](=O)[O-]", "Potency": "inconclusive: 29.1 µM [falling, single point]"}, {"smiles": "COC(=O)c1c(O)cc(=O)n2c1CCCCC2", "lipid storage change, negative = inhibition": "inconclusive: -29%"}, {"smiles": "Cc1nc(C)c(/C(O)=C\\c2nc3ccc([N+](=O)[O-])cc3oc2=O)o1", "Potency": "inconclusive: 32.6 µM [falling, single point]"}, {"smiles": "CCCCNC(=O)c1ccccc1NC(=O)CN(c1ccccc1)S(=O)(=O)N(C)C", "lipid storage change, negative = inhibition": "inconclusive: 20.2%"}, {"smiles": "COc1ccc(Nc2nc(C)cc(C)c2C(N)=O)cc1", "lipid storage change, negative = inhibition": "inconclusive: 51.2%"}, {"smiles": "CC(=O)N1CCN(c2ccc(NC(=O)c3ccc(Cl)c([N+](=O)[O-])c3)cc2)CC1", "lipid storage change, negative = inhibition": "inconclusive: 10.3%"}, {"smiles": "CC1=C(C(=O)Nc2ccccc2C(F)(F)F)C(c2ccc(C)s2)NC(=S)N1", "note": "(stereo not given)", "lipid storage change, negative = inhibition": "inconclusive: 45.9%"}, {"smiles": "COc1ccc2cnn(Cc3ccccc3)c(=O)c2c1OC", "lipid storage change, negative = inhibition": "inconclusive: -35.7%"}, {"smiles": "Nc1cccc2cc(-c3ccccc3)oc12", "Potency": "inconclusive: 23.1 µM [falling, single point]"}, {"smiles": "COc1cc(C(CCN2CCN(c3ccccc3)CC2)c2c(OC)cc(OC)c3c(C)cc(=O)oc23)cc(OC)c1OC", "note": "(stereo not given)", "lipid storage change, negative = inhibition": "inconclusive: -26.6%"}, {"smiles": "COc1cc(OC)cc(-c2c(C#Cc3ccsc3)c3cc(-c4ccc5[nH]ccc5c4)ccc3n2C)c1", "lipid storage change, negative = inhibition": "inconclusive: -31.9%"}, {"smiles": "O=C(Nc1ccc(NC(=O)c2ccc([N+](=O)[O-])o2)cc1Cl)c1ccco1", "lipid storage change, negative = inhibition": "inconclusive: -69.1%"}, {"smiles": "CC(=O)c1ccc(-n2nncc2C)cc1", "lipid storage change, negative = inhibition": "inconclusive: -24.2%"}, {"smiles": "CC(C)COc1ccc(C(=O)OC2CC(C)(C)OCC2CN(C)C)cc1", "note": "(stereo not given)", "lipid storage change, negative = inhibition": "inconclusive: 50.5%"}, {"smiles": "COc1ccc(S(=O)(=O)Nc2ccc(-n3cccc3)cc2)cc1", "Potency": "inconclusive: 29.1 µM [cytotoxic, single point]"}, {"smiles": "Cc1cccc(OCCCC(=O)Nc2ccccc2C(F)(F)F)c1", "lipid storage change, negative = inhibition": "inconclusive: 93.8%"}, {"smiles": "Cc1ccc(S(=O)(=O)N(C)C)cc1NC(=O)COC(=O)CCC1CCCCC1", "lipid storage change, negative = inhibition": "inconclusive"}, {"smiles": "CCn1cc(CNC(=O)C2C3CCC(C3)C2C(=O)O)cn1", "note": "(stereo not given)", "lipid storage change, negative = inhibition": "inconclusive: 4.02%"}, {"smiles": "Cc1cc(NC(=O)C(C)SCC(=O)N(C)CC(=O)Nc2ccc(Br)cc2C)no1", "note": "(stereo not given)", "Potency": "inconclusive: 29.1 µM [falling, single point]"}, {"smiles": "O=C(CCCCC(=O)Nc1ccc(F)cc1)Nc1ccc(F)cc1", "Potency": "inconclusive: 1.84 µM [activator, partial curve]"}, {"smiles": "CCOC(=O)C1C(c2cc(OC)c(OC)c(OC)c2)NC(=S)NC1(O)C(F)(F)F", "note": "(stereo not given)", "lipid storage change, negative = inhibition": "inconclusive: 17.2%"}, {"smiles": "COc1ccc(OC)c(NC(=O)CSc2ccc3nnc(-c4ccccn4)n3n2)c1", "lipid storage change, negative = inhibition": "inconclusive: 27%"}, {"smiles": "COc1cc(/C(C)=N\\NC(N)=S)cc(OC)c1OC", "lipid storage change, negative = inhibition": "inconclusive: 19.8%"}, {"smiles": "O=C(CCNS(=O)(=O)c1ccccc1)N1CCOCC1", "lipid storage change, negative = inhibition": "inconclusive: 3.44%"}, {"smiles": "COc1ccc(NC(=O)c2ccc(NC(=O)CN(C)CC(=O)Nc3c(C)cccc3C)cc2)cc1", "lipid storage change, negative = inhibition": "inconclusive: -21.1%"}, {"smiles": "O=C(NCCNC(=O)c1ccccc1)c1ccccc1", "lipid storage change, negative = inhibition": "inconclusive: -15.8%"}, {"smiles": "COc1ccc(S(=O)(=O)N2CCN(C(=O)N(C)C)C2C)cc1", "note": "(stereo not given)", "lipid storage change, negative = inhibition": "inconclusive: 37.5%"}, {"smiles": "Nc1ccn(-c2ccc(Cl)cc2)c(=O)c1", "lipid storage change, negative = inhibition": "inconclusive: 8.5%"}, {"smiles": "CCOC(=O)c1c(C)c(C(=O)NCc2ccc3c(c2)OCO3)c(C)n1CC", "lipid storage change, negative = inhibition": "inconclusive: 16%"}, {"smiles": "Cc1ccc(S(=O)(=O)NCCCNS(C)(=O)=O)cc1", "lipid storage change, negative = inhibition": "inconclusive: -12.9%"}, {"smiles": "CCN(C(=O)COC(=O)c1cc(S(=O)(=O)N2CCc3ccccc32)ccc1OC)C1CCS(=O)(=O)C1", "note": "(stereo not given)", "lipid storage change, negative = inhibition": "inconclusive: 20.8% [at 9.22 µM]"}, {"smiles": "CCN(CC)S(=O)(=O)c1cc(NC(=O)Cn2cnc3ccccc3c2=O)ccc1C", "Potency": "inconclusive: 4.61 µM [activator, single point]"}, {"smiles": "Cc1cc(/C=C(/C#N)C(=O)O)c(C)n1CCC(C)C", "lipid storage change, negative = inhibition": "inconclusive: -7.17%"}, {"smiles": "CCOc1ccc(C(C(=O)NCCC(C)C)N(CCO)C(=O)c2snc(C(N)=O)c2N)cc1", "note": "(stereo not given)", "lipid storage change, negative = inhibition": "inconclusive: 126%"}, {"smiles": "CCC(C)Nc1nc2ccccc2n2c(C)nnc12", "note": "(stereo not given)", "lipid storage change, negative = inhibition": "inconclusive: -73%"}, {"smiles": "CC(=O)Nc1ccc(NC(=O)COC(=O)c2cc([N+](=O)[O-])ccc2N2CCOCC2)cc1", "lipid storage change, negative = inhibition": "inconclusive: 17.1%"}, {"smiles": "CCOc1ccc(/C=N/Nc2ccc(C(F)(F)F)cc2[N+](=O)[O-])cc1O", "lipid storage change, negative = inhibition": "inconclusive: 6.25%"}, {"smiles": "O=C(Nc1ccc(Cl)cc1)Nc1ccc2c(c1)OCO2", "Potency": "inconclusive: 16.4 µM [activator, partial curve]"}, {"smiles": "CCC(c1nnc(SCC(=O)Nc2ccc(C(N)=O)cc2)n1Cc1ccccc1)N(C)C", "note": "(stereo not given)", "lipid storage change, negative = inhibition": "inconclusive: 45.5%"}, {"smiles": "CCOc1cc(CN2CCN(Cc3ccc(C)o3)C(CCO)C2)ccc1OC", "note": "(stereo not given)", "lipid storage change, negative = inhibition": "inconclusive: 3.69%"}, {"smiles": "CC(=O)[C@@H]1[C@@H](C(=O)c2ccc(F)cc2)[C@]2(C(=O)Nc3ccccc32)[C@H]2C=Cc3cc(F)ccc3N12", "lipid storage change, negative = inhibition": "inconclusive: -2.56%"}, {"smiles": "C=CCn1c(=O)c(C(=O)NCc2ccc(Cl)cc2)c(O)c2ccccc21", "lipid storage change, negative = inhibition": "inconclusive: -70.9%"}, {"smiles": "Cc1ccc(NC(=O)C2CCN(C(=O)OC(C)(C)C)CC2)cc1S(=O)(=O)N1CCCCC1", "lipid storage change, negative = inhibition": "inconclusive: -0.728%"}, {"smiles": "COCC(=O)Nc1ccc(C(C)C)cc1", "lipid storage change, negative = inhibition": "inactive"}, {"smiles": "CCOC(=O)Cn1nc(C)c2c1CCCC2=O", "lipid storage change, negative = inhibition": "inconclusive: -56.8%"}, {"smiles": "Cc1sc2c(c1C)c(=O)nc1scc(CC(=O)O)n12", "lipid storage change, negative = inhibition": "inconclusive: 2.13%"}, {"smiles": "CC(=O)NCCNC(=O)[C@H](Cc1ccccc1)NC(=O)c1cccs1", "lipid storage change, negative = inhibition": "inconclusive: -33.7%"}, {"smiles": "O=C(OC(C(=O)NCc1cccs1)c1ccccc1Cl)c1ccco1", "note": "(stereo not given)", "lipid storage change, negative = inhibition": "inconclusive: 49%"}, {"smiles": "O=C(CCNS(=O)(=O)c1ccc(Br)cc1)N1CCN(c2ccccc2O)CC1", "lipid storage change, negative = inhibition": "inconclusive: 23.3%"}, {"smiles": "COc1ccc(C2C(C(=O)c3cccs3)=C(O)C(=O)N2c2nnc(C)s2)cc1OC", "note": "(stereo not given)", "lipid storage change, negative = inhibition": "inconclusive: 157%"}, {"smiles": "Cc1ccccc1CNC(=O)C1CCN(c2nnc(N3CCCC3=O)s2)CC1", "lipid storage change, negative = inhibition": "inconclusive: 25.4%"}, {"smiles": "COc1ccc(C(=O)N2CCOC2CNC(=O)C(=O)NCc2ccc(Cl)cc2)cc1", "note": "(stereo not given)", "lipid storage change, negative = inhibition": "inconclusive: 14.8%"}, {"smiles": "Cc1cccc(-n2c(O)c(C=NC3CCS(=O)(=O)C3)c3ccccc3c2=O)c1C", "note": "(stereo not given)", "lipid storage change, negative = inhibition": "inconclusive: 16%"}, {"smiles": "O=C(CCS(=O)(=O)c1cccc2nonc12)NC1CCCCCC1", "Potency": "inconclusive: 2.06 µM [activator, full curve]"}, {"smiles": "O=C(Nc1ccc(Cl)cc1N1CCOCC1)C1CCCO1", "note": "(stereo not given)", "Potency": "inconclusive: 0.651 µM [falling, partial curve, poor fit]"}, {"smiles": "O=C(CSCc1cc(=O)n2ccsc2n1)Nc1ccc(F)cc1", "Potency": "inconclusive: 6.51 µM [activator, partial curve]"}, {"smiles": "CCOC(=O)N=Nc1c(O)n(Cc2ccccc2)c2ccccc12", "lipid storage change, negative = inhibition": "inconclusive: 0.339%"}, {"smiles": "COc1cc(-c2nc(C(=O)NC3CCCCC3)cc3c2[nH]c2ccccc23)cc(OC)c1OC", "Potency": "active: 13 µM"}, {"smiles": "CCOC(=O)CNc1ncc([N+](=O)[O-])cc1C#N", "lipid storage change, negative = inhibition": "inconclusive: -2.65%"}, {"smiles": "CCCSCCCNC(=O)CN1C(=O)COc2ccc(S(=O)(=O)N3CCCC3)cc21", "Potency": "inconclusive: 6.51 µM [activator, full curve]"}, {"smiles": "COCCN(C(=O)c1cccc(OC)c1)c1nnc(-c2ccncc2)s1", "lipid storage change, negative = inhibition": "inconclusive: 18.3%"}, {"smiles": "CCc1ccc(OCC(=O)Nc2ccc3c(c2)OCCO3)cc1", "Potency": "inconclusive: 23.1 µM [activator, single point]"}, {"smiles": "CC1CCN(CC(O)Cn2c3ccccc3c3ccccc32)CC1", "note": "(stereo not given)", "Potency": "inconclusive: 18.4 µM [activator, partial curve]"}, {"smiles": "CC12COC3(C(=O)Nc4ccc(F)cc4)CC1CCC32C", "note": "(stereo not given)", "lipid storage change, negative = inhibition": "inconclusive: -10.3%"}, {"smiles": "O=C1c2ccccc2NC(c2c(Cl)cccc2Cl)N1Cc1ccccc1", "note": "(stereo not given)", "lipid storage change, negative = inhibition": "inconclusive: -16.8%"}, {"smiles": "O=C(COC(=O)c1ccccc1C(=O)c1ccccc1)Nc1cccc([N+](=O)[O-])c1", "lipid storage change, negative = inhibition": "inconclusive: 16.1%"}, {"smiles": "CC(NC(=O)Nc1cccc(Cl)c1)C(c1cccs1)N1CCCC1", "note": "(stereo not given)", "lipid storage change, negative = inhibition": "inconclusive: 8.85%"}, {"smiles": "COc1ccc(N(CC(=O)N/N=C/c2ccc(OC)cc2OC)S(=O)(=O)c2ccccc2)cc1", "lipid storage change, negative = inhibition": "inconclusive: 11.8%"}, {"smiles": "Cn1nc(CC(=O)Nc2ncc(Br)s2)c2ccccc2c1=O", "lipid storage change, negative = inhibition": "inconclusive: -12.7%"}, {"smiles": "Cc1nc2ccccc2c2oc(C(=O)NCC3COc4ccccc4O3)cc12", "note": "(stereo not given)", "lipid storage change, negative = inhibition": "inconclusive: 2.56%"}, {"smiles": "CCc1ccccc1S(=O)(=O)c1c(C)cc(C)nc1Cl", "lipid storage change, negative = inhibition": "inconclusive: 14%"}, {"smiles": "CN(c1ccccc1)S(=O)(=O)c1ccc(C(=O)NCc2ccccc2F)cc1", "Potency": "active: 13 µM"}, {"smiles": "NC(=O)CSc1nc2sc(-c3ccccc3)cc2c(=O)n1N", "lipid storage change, negative = inhibition": "inconclusive: -24.8%"}, {"smiles": "CS(=O)(=O)c1ccccc1C(=O)Nc1cc(Cl)ccc1-n1cncn1", "lipid storage change, negative = inhibition": "inconclusive: 24.5%"}, {"smiles": "CN(C)CCNc1c2c(c(C#N)c3nc4ccccc4n13)CCCC2", "lipid storage change, negative = inhibition": "inconclusive: -0.332%"}, {"smiles": "CCCn1c(=O)[nH]c(=O)c2c1nc(-c1cccs1)n2CCOC", "lipid storage change, negative = inhibition": "inconclusive: 9.35%"}, {"smiles": "Cc1cc(C(=O)OCC(=O)N2CCOCC2)ccc1[N+](=O)[O-]", "lipid storage change, negative = inhibition": "inconclusive: -16.3%"}]}]}
